Assay results published in patent US20170290821A1 (priority 2014, published 2017).
Where two headings read alike, the source gives them in different places.

System: influenza virus A/WSN RG#1-1 strains
Experiment: microbe, parasite or virus in culture
Assay type: cell-based
Conditions: unidentified influenza virus, read-out: IC50 (50% virus replication inhibitory concentration)

Structure (SMILES): CCS(=O)(=O)N1CC(CC#N)(n2cc(-c3ncnc4[nH]ccc34)cn2)C1 [Compound J6, 2-[1-ethylsulfonyl-3-[4-(7H-pyrrolo[2,3-d]pyrimidin-4-yl)-pyrazol-1-yl]azetidin-3-yl]acetonitrile]
- IC50 (A549, 48 h): 31.6 µM
- IC50 (HEK293, 48 h): 31.6 µM
